Data as given in patent publication US20110178104A1, “Anti-Heparin Compounds” (POLYMEDIX INC., priority 2010, published 2011).
Some results were stated once for a whole list of compounds, not compound by compound. Some compounds share one range, which may span the group rather than tell each member.

Tests used:
fondaparinux = test: FXa amidolytic assay in human plasma, fondaparinux; format: biochemical; conditions: fondaparinux 1.25 μg/mL
UFH = test: aPTT clotting assay in presence of human plasma (Example 5); format: biochemical; conditions: UFH 4 μg/mL; for percent of the anticoagulant effect of UFH inhibited (aPTT): at a concentration of about 6-16 μg/mL; for concentration antagonizing about 50% of the anticoagulant effect of UFH (aPTT): human plasma
enoxaparin [1] = test: In vivo neutralization of enoxaparin in the rat; conditions: enoxaparin 2 mg/kg IV
Method: Compounds were tested for their ability to neutralize enoxaparin coagulation inhibition in rats. Male Sprague-Dawley rats were used in this study (Charles River Laboratories). They were ten-weeks-old at the start of the study and their weights ranged from 319-362 g. Enoxaparin (2 mg/kg) was administered by IV injection to groups of six rats. After 3 min, saline, protamine or a test compound was administered by IV injection. Blood was collected before dosing with enoxaparin, and at 1, 3, 10, 30 and 60 min after dosing with the standard and test compounds. All treatments were dosed in a volume of 1 mL/kg. Blood was collected via the orbital sinus from three rats per group. At each time point, 1 mL of blood was collected from each animal into a single tube. The blood was analyzed using an AMEX Destiny Plus Coagulation Analyzer for activated partial thromboplastin time (APTT) and anti-Factor Xa (low-molecular weight).

enoxaparin [2] = test: FXa amidolytic assay in human plasma, enoxaparin; format: biochemical; conditions: enoxaparin 10 μg/mL; for percent of the anticoagulant effect of enoxaparin inhibited (FXa amidolytic): at a concentration of about 50 μg/mL

COc1ccc(NC(=O)[C@@H](CCCNC(=N)N)NC(=O)c2cc(NC(=O)[C@@H](CCCNC(=N)N)NC(=O)c3cc(NC(=O)[C@@H](CCCNC(=N)N)NC(=O)c4cc(NC(=O)[C@H](N)CCCNC(=N)N)ccc4OC)ccc3OC)ccc2OC)cc1C(=O)NCCCCCN [Compound 41]
EC50 against the anticoagulant effect of fondaparinux (fondaparinux): 1 to 3 µg/mL

COc1ccc(NC(=O)[C@@H](CCCNC(=N)N)NC(=O)c2cc(NC(=O)[C@@H](CCCNC(=N)N)NC(=O)c3cc(NC(=O)[C@@H](CCCNC(=N)N)NC(=O)c4cc(NC(=O)[C@@H](C)N)ccc4OC)ccc3OC)ccc2OC)cc1C(N)=O [Compound 16]
percent of the anticoagulant effect of UFH inhibited (aPTT) (UFH): 90%-100%
concentration antagonizing about 50% of the anticoagulant effect of UFH (aPTT) (UFH): 1 to 3 µg/mL

COc1ccc(NC(=O)[C@@H](CCCNC(=N)N)NC(=O)c2cc(NC(=O)[C@@H](CCCNC(=N)N)NC(=O)c3cc(NC(=O)[C@@H](CCCNC(=N)N)NC(=O)c4cc(NC(=O)[C@H](N)CCCNC(=N)N)ccc4OCC(=O)O)ccc3OC)ccc2OC)cc1C(N)=O [Compound 283]
FXa activity returned, % of pretreatment levels (enoxaparin [1]): greater than 90%

COc1ccc(NC(=O)[C@@H](CCCNC(=N)N)NC(=O)c2cc(NC(=O)[C@@H](CCCNC(=N)N)NC(=O)c3cc(NC(=O)[C@@H](CCCNC(=N)N)NC(=O)c4cc(NC(C)=O)ccc4OC)ccc3OC)ccc2OC)cc1C(=O)NCCCCCN [Compound 53]
percent of the anticoagulant effect of UFH inhibited (aPTT) (UFH): 90%-100%
concentration antagonizing about 50% of the anticoagulant effect of UFH (aPTT) (UFH): 1 to 3 µg/mL

COc1ccc(NC(=O)[C@@H](CCCNC(=N)N)NC(=O)c2cc(NC(=O)[C@@H](CCCNC(=N)N)NC(=O)c3cc(NC(=O)[C@@H](CCCNC(=N)N)NC(=O)c4cc(NC(=O)[C@@H](C)NC(=O)CCCCNC(=N)N)ccc4OC)ccc3OC)ccc2OC)cc1C(N)=O [Compound 49]
EC50 against the anticoagulant effect of fondaparinux (fondaparinux): 1 to 3 µg/mL

COc1ccc(NC(=O)[C@H](CCCCN)NC(=O)c2cc(NC(=O)[C@H](CCCCN)NC(=O)c3cc(NC(=O)[C@H](CCCCN)NC(=O)c4cc(NC(=O)[C@@H](N)CCCCN)ccc4OC)ccc3OC)ccc2OC)cc1C(N)=O [Compound 8]
percent of the anticoagulant effect of UFH inhibited (aPTT) (UFH): 90%-100%
concentration antagonizing about 50% of the anticoagulant effect of UFH (aPTT) (UFH): 1 to 3 µg/mL
EC50 against the anticoagulant effect of fondaparinux (fondaparinux): 1 to 3 µg/mL

COc1cc(OC)c(C(=O)N[C@H]2CC[C@H](NC(=O)c3cc(C(=O)NCCN(C)C)c(OCCCCCNC(=N)N)cc3OCCCCCNC(=N)N)CC2)cc1C(=O)N[C@H]1CC[C@H](NC(=O)c2cc(C(=O)NCCN(C)C)c(OCCCCCNC(=N)N)cc2OCCCCCNC(=N)N)CC1 [Compound B]
FXa activity returned, % of pretreatment levels (enoxaparin [1]): greater than 90%

COc1ccc(NC(=O)[C@H](CCCCN)NC(=O)c2cc(NC(=O)[C@H](CCCCN)NC(=O)c3cc(NC(=O)[C@H](CCCCN)NC(=O)c4cc(NC(=O)[C@H](CCCCN)NC(C)=O)ccc4OC)ccc3OC)ccc2OC)cc1C(N)=O [Compound 28]
concentration antagonizing about 50% of the anticoagulant effect of enoxaparin (FXa amidolytic) (enoxaparin [2]): 25 to 30 µg/mL

COc1ccc(NC(=O)[C@@H](CCCNC(=N)N)NC(=O)c2cc(NC(=O)[C@@H](CCCNC(=N)N)NC(=O)c3cc(NC(=O)[C@@H](CCCNC(=N)N)NC(=O)c4cc(NC(C)=O)ccc4OC)ccc3OC)ccc2OC)cc1C(=O)NCCN [Compound 52]
percent of the anticoagulant effect of UFH inhibited (aPTT) (UFH): 90%-100%
concentration antagonizing about 50% of the anticoagulant effect of UFH (aPTT) (UFH): 1 to 3 µg/mL

COc1ccc(NC(=O)[C@H](CCCNC(=N)N)NC(=O)c2cc(NC(=O)[C@H](CCCNC(=N)N)NC(=O)c3cc(NC(=O)[C@H](CCCNC(=N)N)NC(=O)c4cc(NC(=O)[C@@H](N)CCCNC(=N)N)ccc4OC)ccc3OC)ccc2OC)cc1C(N)=O [Compound 45]
percent of the anticoagulant effect of UFH inhibited (aPTT) (UFH): 90%-100%
concentration antagonizing about 50% of the anticoagulant effect of UFH (aPTT) (UFH): 1 to 3 µg/mL

COc1ccc(NC(=O)[C@H](CCCNC(=N)N)NC(=O)c2cc(NC(=O)[C@H](CCCNC(=N)N)NC(=O)c3cc(NC(=O)[C@H](CCCNC(=N)N)NC(=O)c4cc(NC(=O)[C@@H](N)CCCNC(=N)N)ccc4OC)ccc3OC)ccc2OC)cc1C(N)=O [Compound 7]
concentration antagonizing about 50% of the anticoagulant effect of enoxaparin (FXa amidolytic) (enoxaparin [2]): 25 to 30 µg/mL
percent of the anticoagulant effect of enoxaparin inhibited (FXa amidolytic) (enoxaparin [2]): 90%-100%
percent of the anticoagulant effect of UFH inhibited (aPTT) (UFH): 90%-100%
concentration antagonizing about 50% of the anticoagulant effect of UFH (aPTT) (UFH): 1 to 3 µg/mL
EC50 against the anticoagulant effect of fondaparinux (fondaparinux): 1 to 3 µg/mL

COc1ccc(NC(=O)[C@@H](CCCNC(=N)N)NC(=O)c2cc(NC(=O)[C@@H](CCCNC(=N)N)NC(=O)c3cc(NC(=O)[C@@H](CCCNC(=N)N)NC(=O)c4cc(NC(=O)[C@@H](CCCNC(=N)N)NC(=O)CCCCNC(=N)N)ccc4OC)ccc3OC)ccc2OC)cc1C(N)=O [Compound 38]
concentration antagonizing about 50% of the anticoagulant effect of enoxaparin (FXa amidolytic) (enoxaparin [2]): 25 to 30 µg/mL
percent of the anticoagulant effect of enoxaparin inhibited (FXa amidolytic) (enoxaparin [2]): 90%-100%
